One sequence from publication PMC2945768 can be followed below.

Sequences of proteins named here, by UniProt entry; tags and fusion partners are left off. A change or cut given only in a name is not applied to a line headed by its entry.
UniProt Q8BG05: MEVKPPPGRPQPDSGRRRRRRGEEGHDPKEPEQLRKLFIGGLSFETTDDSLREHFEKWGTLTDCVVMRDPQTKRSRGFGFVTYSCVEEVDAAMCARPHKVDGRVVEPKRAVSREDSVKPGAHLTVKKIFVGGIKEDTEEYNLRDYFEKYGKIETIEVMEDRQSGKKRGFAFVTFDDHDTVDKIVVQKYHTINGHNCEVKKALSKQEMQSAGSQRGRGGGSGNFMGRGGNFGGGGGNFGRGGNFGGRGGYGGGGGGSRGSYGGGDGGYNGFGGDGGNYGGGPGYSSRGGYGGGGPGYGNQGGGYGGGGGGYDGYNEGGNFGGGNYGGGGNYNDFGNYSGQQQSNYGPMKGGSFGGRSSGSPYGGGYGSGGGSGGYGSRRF

The exact form of at least one protein or probe is not confirmed. At least one result comes from cells or an extract, where the contact may be indirect. For some assays here: At least one verdict rests on a figure or table, not on a statement of the authors.

The target in series [1] is hnRNP A3 (Mus musculus (C57BL/6J, 6 months, liver)) (UniProt Q8BG05). Description: EMSA, UV cross-linking, 2DE, MALDI-TOF/MS. The conditions noted are these: bound form unphosphorylated at Ser359, competed by cold N2 and cold N1; 10 mM Tris-HCl (pH not stated), 50 mM NaCl, 5% glycerol, 1 mM DTT, 1 mM EDTA, 0.2 ug yeast RNA, 15 U RNase inhibitor; 2.5-10 ug mouse liver nuclear extract, 50 min on ice; protein in an extract; label: 32P-UTP internal (unlabelled as competitor).

For series [2] the target is unchanged. Description: competition with a labelled probe. The conditions noted are these: cold N2 against 32P-N1, liver nuclear extract; 10 mM Tris-HCl (pH not stated), 50 mM NaCl, 5% glycerol, 1 mM DTT, 1 mM EDTA, 0.2 ug yeast RNA, 15 U RNase inhibitor; 2.5-10 ug mouse liver nuclear extract, 50 min on ice; protein in an extract; label: 32P-UTP internal (unlabelled as competitor).

As for “GAAAUCAUUAAUUUAAUCAUAUUGGUAAUAUAUAUAUAUUAUAUCUCUAA [mFIX-AIE RNA]”, the binding result in series [1] and in series [2] was “binds” throughout.
